From US20200024357A1 (published 2020)
Results are given in words; binding and its absence hold for the method and conditions named. Some results given as binding are weak or reduced against the parent protein; the word gives no strength.

Molecular target: cynomolgus (Macaca fascicularis) CD39 expressed on CHO cells (cynomolgus (Macaca fascicularis))
Assay: flow cytometry on CHO cells expressing cynomolgus CD39

Row | Binder | binding
1 | mAb10 H2*L0 (antibody, human IgG1, V domains shown) VH: QVQLVQSGAEVKKPGASVKVSCKASGYTFTDYNMHWVRQAPGQRLEWMGYIVPLNGGSTFSQKFKGRATITVDTSASTAYMELSSLRSEDTAVYYCARGGTRFAYWGQGTLVTVSS VL: DIVMTQSPDSLAVSLGERATINCRASESVDNFGVSFMYWYQQKPGQPPKLLIYGASNQGSGVPDRFSGSGSGTDFTLTISSLQAEDVAVYYCQQTKEVPYTFGGGTKVEIK | binds
2 | mAb4 H1L0 (antibody, human IgG1, V domains shown) VH: QVQLVQSGAEVKKPGASVKVSCKASGYTFTDYNMHWVRQAPGQRLEWMGYIVPLNGGSTFNQKFKGRVTITVDTSASTAYMELSSLRSEDTAVYYCARGGTRFAYWGQGTLVTVS VL: DIVMTQSPDSLAVSLGERATINCRASESVDNFGVSFMYWYQQKPGQPPKLLIYGASNQGSGVPDRFSGSGSGTDFTLTISSLQAEDVAVYYCQQTKEVPYTFGGGTKVEIK | binds
3 | mAb19 H4L0 (antibody, human IgG1, V domains shown) VH: QVQLVQSGAEVKKPGASVKVSCKASGYTFTDYNMHWVRQAPGQRLEWIGYIVPLNGGSTFNQKFKGRATITVDTSARTAYMELSSLRSEDTAVYYCARGGTRFAYWGQGTLVTVSS VL: DIVMTQSPDSLAVSLGERATINCRASESVDNFGVSFMYWYQQKPGQPPKLLIYGASNQGSGVPDRFSGSGSGTDFTLTISSLQAEDVAVYYCQQTKEVPYTFGGGTKVEIK | binds
4 | mAb7 H2L0 (antibody, human IgG1, V domains shown) VH: QVQLVQSGAEVKKPGASVKVSCKASGYTFTDYNMHWVRQAPGQRLEWMGYIVPLNGGSTFNQKFKGRATITVDTSASTAYMELSSLRSEDTAVYYCARGGTRFAYWGQGTLVTVSS VL: DIVMTQSPDSLAVSLGERATINCRASESVDNFGVSFMYWYQQKPGQPPKLLIYGASNQGSGVPDRFSGSGSGTDFTLTISSLQAEDVAVYYCQQTKEVPYTFGGGTKVEIK | binds
5 | mAb15 H3L1* (antibody, human IgG1, V domains shown) VH: QVQLVQSGAEVKKPGASVKVSCKASGYTFTDYNMHWVRQAPGQRLEWIGYIVPLNGGSTFNQKFKGRATITVDTSASTAYMELSSLRSEDTAVYYCARGGTRFAYWGQGTLVTVSS VL: DIVMTQSPDSLAVSLGERATINCKASESVDNFGVSFMYWFQQKPGQPPKLLIYGASNQGSGVPDRFSGSGSGTDFTLTISSLQAEDVAVYYCQQTKEVPYTFGGGTKVEIK | binds
6 | mAb20 H4L1 (antibody, human IgG1, kappa, V domains shown, The full heavy chain carries L234A/L235E/G237A/A330S/P331S) VH: QVQLVQSGAEVKKPGASVKVSCKASGYTFTDYNMHWVRQAPGQRLEWIGYIVPLNGGSTFNQKFKGRATITVDTSARTAYMELSSLRSEDTAVYYCARGGTRFAYWGQGTLVTVSS VL: DIVMTQSPDSLAVSLGERATINCRASESVDNFGVSFMYWFQQKPGQPPKLLIYGASNQGSGVPDRFSGSGSGTDFTLTISSLQAEDVAVYYCQQTKEVPYTFGGGTKVEIKR | binds
7 | mAb9 H2L1* (antibody, human IgG1, V domains shown) VH: QVQLVQSGAEVKKPGASVKVSCKASGYTFTDYNMHWVRQAPGQRLEWMGYIVPLNGGSTFNQKFKGRATITVDTSASTAYMELSSLRSEDTAVYYCARGGTRFAYWGQGTLVTVSS VL: DIVMTQSPDSLAVSLGERATINCKASESVDNFGVSFMYWFQQKPGQPPKLLIYGASNQGSGVPDRFSGSGSGTDFTLTISSLQAEDVAVYYCQQTKEVPYTFGGGTKVEIK | binds
8 | mAb3 H0L1* (antibody, human IgG1, V domains shown) VH: QVQLVQSGAEVKKPGASVKVSCKASGYTFTDYNMHWVRQAPGQRLEWMGYIVPLNGGSTFNQKFKGRVTITRDTSASTAYMELSSLRSEDTAVYYCARGGTRFAYWGQGTLVTVSS VL: DIVMTQSPDSLAVSLGERATINCKASESVDNFGVSFMYWFQQKPGQPPKLLIYGASNQGSGVPDRFSGSGSGTDFTLTISSLQAEDVAVYYCQQTKEVPYTFGGGTKVEIK | binds
9 | mAb2 H0L1 (antibody, human IgG1, V domains shown) VH: QVQLVQSGAEVKKPGASVKVSCKASGYTFTDYNMHWVRQAPGQRLEWMGYIVPLNGGSTFNQKFKGRVTITRDTSASTAYMELSSLRSEDTAVYYCARGGTRFAYWGQGTLVTVSS VL: DIVMTQSPDSLAVSLGERATINCRASESVDNFGVSFMYWFQQKPGQPPKLLIYGASNQGSGVPDRFSGSGSGTDFTLTISSLQAEDVAVYYCQQTKEVPYTFGGGTKVEIK | binds

Next, values leading:

Row | binding | Binder
10 | binds | mAb1 H0L0 (antibody, human IgG1, V domains shown) VH: QVQLVQSGAEVKKPGASVKVSCKASGYTFTDYNMHWVRQAPGQRLEWMGYIVPLNGGSTFNQKFKGRVTITRDTSASTAYMELSSLRSEDTAVYYCARGGTRFAYWGQGTLVTVSS VL: DIVMTQSPDSLAVSLGERATINCRASESVDNFGVSFMYWYQQKPGQPPKLLIYGASNQGSGVPDRFSGSGSGTDFTLTISSLQAEDVAVYYCQQTKEVPYTFGGGTKVEIK
11 | binds | mAb18 H3*L1* (antibody, human IgG1, V domains shown) VH: QVQLVQSGAEVKKPGASVKVSCKASGYTFTDYNMHWVRQAPGQRLEWIGYIVPLNGGSTFSQKFQGRATITVDTSASTAYMELSSLRSEDTAVYYCARGGTRFAYWGQGTLVTVSS VL: DIVMTQSPDSLAVSLGERATINCKASESVDNFGVSFMYWFQQKPGQPPKLLIYGASNQGSGVPDRFSGSGSGTDFTLTISSLQAEDVAVYYCQQTKEVPYTFGGGTKVEIK
12 | binds | mAb12 H2*L1* (antibody, human IgG1, V domains shown) VH: QVQLVQSGAEVKKPGASVKVSCKASGYTFTDYNMHWVRQAPGQRLEWMGYIVPLNGGSTFSQKFKGRATITVDTSASTAYMELSSLRSEDTAVYYCARGGTRFAYWGQGTLVTVSS VL: DIVMTQSPDSLAVSLGERATINCKASESVDNFGVSFMYWFQQKPGQPPKLLIYGASNQGSGVPDRFSGSGSGTDFTLTISSLQAEDVAVYYCQQTKEVPYTFGGGTKVEIK
13 | binds | mAb13 H3L0 (antibody, human IgG1, V domains shown) VH: QVQLVQSGAEVKKPGASVKVSCKASGYTFTDYNMHWVRQAPGQRLEWIGYIVPLNGGSTFNQKFKGRATITVDTSASTAYMELSSLRSEDTAVYYCARGGTRFAYWGQGTLVTVSS VL: DIVMTQSPDSLAVSLGERATINCRASESVDNFGVSFMYWYQQKPGQPPKLLIYGASNQGSGVPDRFSGSGSGTDFTLTISSLQAEDVAVYYCQQTKEVPYTFGGGTKVEIK
14 | binds | mAb21 H4L1* (antibody, human IgG1, kappa, V domains shown) VH: QVQLVQSGAEVKKPGASVKVSCKASGYTFTDYNMHWVRQAPGQRLEWIGYIVPLNGGSTFNQKFKGRATITVDTSARTAYMELSSLRSEDTAVYYCARGGTRFAYWGQGTLVTVSS VL: DIVMTQSPDSLAVSLGERATINCKASESVDNFGVSFMYWFQQKPGQPPKLLIYGASNQGSGVPDRFSGSGSGTDFTLTISSLQAEDVAVYYCQQTKEVPYTFGGGTKVEIKR
15 | binds | mAb8 H2L1 (antibody, human IgG1, V domains shown) VH: QVQLVQSGAEVKKPGASVKVSCKASGYTFTDYNMHWVRQAPGQRLEWMGYIVPLNGGSTFNQKFKGRATITVDTSASTAYMELSSLRSEDTAVYYCARGGTRFAYWGQGTLVTVSS VL: DIVMTQSPDSLAVSLGERATINCRASESVDNFGVSFMYWFQQKPGQPPKLLIYGASNQGSGVPDRFSGSGSGTDFTLTISSLQAEDVAVYYCQQTKEVPYTFGGGTKVEIK
16 | binds | mAb16 H3*L0 (antibody, human IgG1, V domains shown) VH: QVQLVQSGAEVKKPGASVKVSCKASGYTFTDYNMHWVRQAPGQRLEWIGYIVPLNGGSTFSQKFQGRATITVDTSASTAYMELSSLRSEDTAVYYCARGGTRFAYWGQGTLVTVSS VL: DIVMTQSPDSLAVSLGERATINCRASESVDNFGVSFMYWYQQKPGQPPKLLIYGASNQGSGVPDRFSGSGSGTDFTLTISSLQAEDVAVYYCQQTKEVPYTFGGGTKVEIK
17 | binds | mAb14 H3L1 (antibody, human IgG1, V domains shown) VH: QVQLVQSGAEVKKPGASVKVSCKASGYTFTDYNMHWVRQAPGQRLEWIGYIVPLNGGSTFNQKFKGRATITVDTSASTAYMELSSLRSEDTAVYYCARGGTRFAYWGQGTLVTVSS VL: DIVMTQSPDSLAVSLGERATINCRASESVDNFGVSFMYWFQQKPGQPPKLLIYGASNQGSGVPDRFSGSGSGTDFTLTISSLQAEDVAVYYCQQTKEVPYTFGGGTKVEIK
18 | binds | mAb6 H1L1* (antibody, human IgG1, V domains shown) VH: QVQLVQSGAEVKKPGASVKVSCKASGYTFTDYNMHWVRQAPGQRLEWMGYIVPLNGGSTFNQKFKGRVTITVDTSASTAYMELSSLRSEDTAVYYCARGGTRFAYWGQGTLVTVS VL: DIVMTQSPDSLAVSLGERATINCKASESVDNFGVSFMYWFQQKPGQPPKLLIYGASNQGSGVPDRFSGSGSGTDFTLTISSLQAEDVAVYYCQQTKEVPYTFGGGTKVEIK
19 | binds | mAb5 H1L1 (antibody, human IgG1, V domains shown) VH: QVQLVQSGAEVKKPGASVKVSCKASGYTFTDYNMHWVRQAPGQRLEWMGYIVPLNGGSTFNQKFKGRVTITVDTSASTAYMELSSLRSEDTAVYYCARGGTRFAYWGQGTLVTVS VL: DIVMTQSPDSLAVSLGERATINCRASESVDNFGVSFMYWFQQKPGQPPKLLIYGASNQGSGVPDRFSGSGSGTDFTLTISSLQAEDVAVYYCQQTKEVPYTFGGGTKVEIK
20 | binds | mAb17 H3*L1 (antibody, human IgG1, V domains shown) VH: QVQLVQSGAEVKKPGASVKVSCKASGYTFTDYNMHWVRQAPGQRLEWIGYIVPLNGGSTFSQKFQGRATITVDTSASTAYMELSSLRSEDTAVYYCARGGTRFAYWGQGTLVTVSS VL: DIVMTQSPDSLAVSLGERATINCRASESVDNFGVSFMYWFQQKPGQPPKLLIYGASNQGSGVPDRFSGSGSGTDFTLTISSLQAEDVAVYYCQQTKEVPYTFGGGTKVEIK
21 | binds | mAb11 H2*L1 (antibody, human IgG1, V domains shown) VH: QVQLVQSGAEVKKPGASVKVSCKASGYTFTDYNMHWVRQAPGQRLEWMGYIVPLNGGSTFSQKFKGRATITVDTSASTAYMELSSLRSEDTAVYYCARGGTRFAYWGQGTLVTVSS VL: DIVMTQSPDSLAVSLGERATINCRASESVDNFGVSFMYWFQQKPGQPPKLLIYGASNQGSGVPDRFSGSGSGTDFTLTISSLQAEDVAVYYCQQTKEVPYTFGGGTKVEIK
